One molecule from patent US10772896B2, “Process for preparing a dry powder formulation comprising an anticholinergic, a corticosteroid and a beta-adrenergic” (CHIESI FARMACEUTICI S.P.A., priority 2015, dated 2020) can be followed below.

Counter-ions that a name gives are not always drawn.

The data set is described as follows: Uniformity of distribution of the active ingredients in the blend (10 samples, HPLC). The data set is classed as physicochemical. Conditions: dry powder formulation of Example 2; mean value ± RSD. On the procedure:
The uniformity of distribution of the active ingredients was evaluated by withdrawing 10 samples from different parts of the blend and evaluated by HPLC

In the case of `COc1ccc(CC(C)NCC(O)c2ccc(O)c(NC=O)c2)cc1` (stereo not shown) [FF, formoterol fumarate dihydrate], the Uniformity of distribution is on record as 100.5 (±1.5).
